Data reported in PubChem BioAssay AID2551 (National Center for Advancing Translational Sciences (NCATS), 2010).
In all, about 310,000 compounds went through this assay and about 17,000 (5.5%) were called active. This list was built around the results that the source calls inconclusive (neither active nor inactive); the mix of calls is not that of the screen. Calls follow the shape of the dose curve; as a rule, active = well fitted inhibition curve with a large enough effect; inconclusive = small, poorly fitted or top-dose-only effect, or effect the other way; inactive = no such curve, though single readings can be large or run the other way. A potency beside an inconclusive call is a rough fit, not a confirmed value.

Sequences of proteins named here, by UniProt entry; tags and fusion partners are left off. A change or cut given only in a name is not applied to a line headed by its entry.
UniProt P51450: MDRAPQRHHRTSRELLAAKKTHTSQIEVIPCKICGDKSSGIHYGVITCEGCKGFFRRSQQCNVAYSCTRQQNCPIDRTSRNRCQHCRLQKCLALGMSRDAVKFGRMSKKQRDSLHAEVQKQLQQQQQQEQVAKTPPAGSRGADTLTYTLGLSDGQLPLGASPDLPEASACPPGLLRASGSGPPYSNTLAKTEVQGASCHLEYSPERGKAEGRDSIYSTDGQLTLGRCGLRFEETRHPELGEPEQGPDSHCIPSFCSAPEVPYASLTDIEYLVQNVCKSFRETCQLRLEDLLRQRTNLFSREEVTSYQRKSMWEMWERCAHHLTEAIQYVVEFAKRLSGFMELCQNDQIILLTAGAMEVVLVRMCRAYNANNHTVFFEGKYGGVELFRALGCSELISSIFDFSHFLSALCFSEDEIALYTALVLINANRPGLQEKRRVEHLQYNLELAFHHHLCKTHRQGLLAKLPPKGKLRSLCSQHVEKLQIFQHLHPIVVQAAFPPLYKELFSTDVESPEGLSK

What follows are compounds tested against Nuclear receptor ROR-gamma (Mus musculus) (UniProt P51450) (assay: qHTS for inhibitors of ROR gamma transcriptional activity). Conditions: Drosophila S2 Gal4-RORgamma UAS-luciferase reporter, 20 h; series mostly up to 53.6 µM.
How it was run: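 Luminescence from a UAS-regulated Photinus luciferase reporter in stably transfected Drosophila Schneider cells is measured; decreased signal marks ROR gamma inhibition. Fusion expression is induced by 700 uM copper sulfate for 20 hr.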
Also: nearly all actives have a fitted effect of over 60% in size.
Potency is read from the fitted curve at half-maximal effect.

Row | Structure (SMILES) | Potency
1 | CCOC(=O)c1c(-c2ccc(C)o2)csc1NC(=O)CSc1nnc(C)s1 | inconclusive: 31.6 µM [inhibitor, partial curve, poor fit]
2 | Cc1cccc(NC(=S)Nc2ccc(Cl)c(Cl)c2)c1 | active: 15.8 µM
3 | S=C(c1ccc(-c2ccccc2)o1)N1CCCCC1 | active: 10 µM
4 | CCOc1ccc(OCc2cccc(C(=O)N3CCCC3)c2)cc1 | inconclusive: 0.355 µM [activator, full curve, poor fit]
5 | CCN(CC)C(=O)Oc1ccc2c(=O)c(-c3ccc(OC)cc3)coc2c1 | inactive
6 | Cc1cccc(NC(=S)NCCc2ccccc2)c1C | active: 3.55 µM
7 | CCN(CC)c1ccc(N=Cc2ccc([N+](=O)[O-])o2)cc1 | inconclusive: 11.2 µM [inhibitor, single point]
8 | CC(=O)N1CCc2cc(S(=O)(=O)Nc3ccc(C)cc3C)ccc21 | inconclusive: 35.5 µM [activator, single point]
9 | COCCNC(=O)C1Cc2c(ccc3ccccc23)O1 (stereo unspecified) | inactive
10 | Cn1c(=O)c2c(nc(SCC(=O)NCC3CCCO3)n2Cc2ccc(F)cc2)n(C)c1=O (stereo unspecified) | inactive
11 | COc1ccc(OC)c(NC(=O)CCN2CCN(c3ccccc3)CC2)c1 | inactive
12 | Cc1sc2nc3ccc(N4CCCC4)nn3c(=O)c2c1C | inactive
13 | CCc1nnc(NC(=O)CSc2nnc3c(n2)[nH]c2ccccc23)s1 | inconclusive: 3.16 µM [inhibitor, single point]
14 | Cc1cccc(Sc2c([N+](=O)[O-])ncn2C)c1 | inactive
15 | COc1ccc(-c2nc3ccccc3nc2-c2ccc(OC)cc2)cc1 | inactive
16 | CC(=O)c1ccc(OCC(=O)c2ccc(-c3ccccc3)cc2)cc1 | inconclusive: 17.8 µM [activator, single point]
17 | CN1CCN(c2ncncc2-c2ccccc2Cl)CC1 | inactive
18 | COC(=O)Cc1ccc(NC(=S)NCc2ccccc2OC)cc1 | active: 8.91 µM
19 | Cc1nc2ccccc2n1CC(=O)NCc1ccccc1 | inactive
20 | CN1C(=O)c2oc3ccccc3c(=O)c2C1c1ccncc1 (stereo unspecified) | inconclusive: 35.5 µM [inhibitor, single point]
21 | CCCCNC(=S)N(Cc1ccco1)Cc1cc2cc3c(cc2[nH]c1=O)OCCO3 | inconclusive: 31.6 µM [inhibitor, single point]
22 | Cc1oc(-c2ccccc2)nc1CS(=O)CC(=O)N1CCc2ccccc2C1 (stereo unspecified) | inconclusive: 35.5 µM [inhibitor, single point]
23 | O=C(NNC(=O)c1cccs1)c1ccc([N+](=O)[O-])cc1 | inconclusive: 14.1 µM [inhibitor, single point]
24 | CC(=O)Nc1ccc(SCC(Cc2ccccc2)N2CCN(CCc3ccccc3)CCC2=O)cc1 (stereo unspecified) | inconclusive: 35.5 µM [activator, single point]
25 | COCCNC(=O)c1sc2nc(-c3ccccc3)cn2c1C | inactive
26 | CCOC(=O)c1cc2c(C)n(-c3ccc(OCC)cc3)c(C)c2ccc1=O | inconclusive: 14.1 µM [activator, partial curve, poor fit]

Retrieved by compound from above:
Row | Structure (SMILES) | Potency
23 | O=C(NNC(=O)c1cccs1)c1ccc([N+](=O)[O-])cc1 | inconclusive: 14.1 µM [inhibitor, single point]
8 | CC(=O)N1CCc2cc(S(=O)(=O)Nc3ccc(C)cc3C)ccc21 | inconclusive: 35.5 µM [activator, single point]
13 | CCc1nnc(NC(=O)CSc2nnc3c(n2)[nH]c2ccccc23)s1 | inconclusive: 3.16 µM [inhibitor, single point]

The listing continues.

Row | Structure (SMILES) | Potency
27 | Cc1cc(C)cc(OCCCOc2cccc3cccnc23)c1 | inconclusive: 2 µM [inhibitor, full curve, poor fit]
28 | S=C1Cc2ccccc2C(c2ccc(Cl)cc2)N1 (stereo unspecified) | active: 6.31 µM
29 | CCOC(=O)CNC(=O)c1cn(C)c(=O)c2cc(OC)c(OC)cc12 | inactive
30 | Cc1cc(C)n(-c2ccc(C(=O)Nc3cccnc3Cl)cc2)n1 | inconclusive: 17.8 µM [activator, partial curve]
31 | CCc1c2c(nc3ccc(OC)cc13)OC(CC)C2 (stereo unspecified) | inactive
32 | CN1CCN(CCCNC(=O)c2ccc(/C=C3\Oc4ccccc4N(Cc4ccccc4F)C3=O)cc2)CC1 | inconclusive: 35.5 µM [inhibitor, single point]
33 | COc1ccccc1N1CCN(C(=O)c2ccc3c(Cl)c4c(nc3c2)CCCC4)CC1 | inconclusive: 11.2 µM [activator, single point]
34 | COc1ccc(-c2cc3c(=O)n(CC(=O)NCc4cccnc4)ncn3n2)cc1 | inconclusive: 35.5 µM [inhibitor, single point]
35 | O=c1[nH]nc(Cc2ccc3ccccc3n2)c2ccccc12 | inconclusive: 11.2 µM [activator, partial curve]
36 | O=C(NCc1cn(-c2ccccc2)nc1-c1ccccc1)c1ccc([N+](=O)[O-])cc1 | inconclusive: 2.51 µM [activator, partial curve]
37 | NS(=O)(=O)c1ccc(N2C(=O)C3CC=CCC3C2=O)cc1 (stereo unspecified) | inactive
38 | CCOC(=O)C1C(=O)CC(C)(O)C(C(=O)OCC)C1c1cccs1 (stereo unspecified) | inactive
39 | O=C(c1ccc(-c2ccccc2)cc1)C1CCCN(Cc2ccncc2)C1 (stereo unspecified) | active: 11.2 µM
40 | Cc1[nH]n(-c2ccccc2)c(=O)c1/C=N/N(c1ccccc1)c1ccccc1 | active: 5.62 µM
41 | COC(=O)c1sccc1NC(=S)Nc1cccc(F)c1 | active: 17.8 µM
42 | CC(C)CCn1c(COc2ccccc2)n[nH]c1=S | active: 1.12 µM
43 | CCOC(=O)C1=NO[C@@]2(C=C(Br)C(=O)[C@H]3O[C@H]32)C1 | inconclusive: 35.5 µM [inhibitor, single point]
44 | CC(C)c1ccc(OCc2ccc(C(=O)N3CCCC3)o2)cc1 | inconclusive: 11.2 µM [activator, partial curve]
45 | CCn1ccnc1CN(C)Cc1cn(-c2ccc(C)cc2)nc1-c1ccc(F)cc1 | active: 2.82 µM
46 | Fc1ccc(-c2cn3ccccc3n2)cc1 | inconclusive: 12.6 µM [inhibitor, single point]
47 | Cc1nc(CSc2n[nH]c(=O)n2-c2ccccc2)cs1 | inactive
48 | CCCN(CCC)CCCNC(=O)c1cc2c(=O)n(C)c3ccccc3c2n1C | inactive
49 | CC(=O)c1ccc(N/N=C(/C(N)=O)C2=NC(C)(C)Cc3ccccc32)cc1 | inconclusive: 20 µM [activator, single point]
50 | CNC(=O)NC1CCCc2ccccc21 (stereo unspecified) | inconclusive: 10 µM [inhibitor, single point]
51 | O=C(c1ccco1)N1CCN(C(c2ccc(Cl)cc2)c2nnnn2CC2CCCO2)CC1 (stereo unspecified) | inconclusive: 35.5 µM [inhibitor, single point]
